Screening data, single-dose tests

Data taken from ChEMBL document CHEMBL3988442, “University of Dundee, Small-Polar-MMV Screening Library” (2021).

Mtb cholesterol medium: 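Growth of Mycobacterium tuberculosis over 4 days (cholesterol / DPPC medium with tyloxapol); the read-out is not stated. Compounds at 50 µM. Higher reads as more growth inhibition (inferred: compounds with an IC50 in retests scored well above the rest). About 69,000 compounds were tested under these conditions; 0.54% (about 370) showed 50% or more at least once.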
Mtb glucose medium: 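Growth of Mycobacterium tuberculosis over 3 days (7H9 medium with glucose and tyloxapol); the read-out is not stated. Concentration: 50 µM. The record gives no direction; compounds that gave an IC50 in retests scored well above the rest, so higher reads as more growth inhibition. About 69,000 compounds were tested under these conditions; 1.1% (about 760) showed 50% or more at least once.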

Results are given as percent effect.
The controls that fix the scale are not given in the record; negative values are as filed.
Compounds were drawn at random from those tested, without regard to their results.
Two or more numbers in one place are separate tests of the same structure; such repeats can differ widely.

SMILES | Mtb cholesterol medium | Mtb glucose medium
O=C(CN1CCOC(Cn2cccn2)C1)NCCc1cccs1 (centres undefined) | 11.96 | -29.07
CSc1ncccc1C(=O)N1CCCC1c1ccc(C(=O)N(C)C)s1 (centres undefined) | -11.42 | 4.355
O=C(O)C(F)(F)F.[H][C@@]12C[C@@H](c3nc(C)no3)CN(CC3CCCC3)[C@]1([H])CCO2 | 2.205 | 32.94
COCCNC(=O)NC1(c2nc(-c3ccncc3)no2)CCCCC1 | -6.991 | -2.33 & -3.836
Cl.Cn1cnc2c(-c3ccccc3)nc(C3CCNCC3)cc21 | -16.32 | -0.6898
CCCn1nc(C)c(CNC(=O)C2COc3c(cccc3OC)C2)c1C (centres undefined) | -5.571 | 6.091
O=C(O)C(F)(F)F.c1ncn(Cc2cn3c(n2)CN(CC2CCCCC2)CC3)n1 | -6.905 & -6.929 | -6.558 & 0.4129
O=C(NCc1nnc2n1CCCC2)c1cn(-c2ccccc2)nn1 | 23.34 | -16.99
N#Cc1cc(NC(=O)C2CC=CC2)ccc1N1CCC(O)CC1 | 17.17 | 24.28
Cn1ncc2c1C(COCC1CC1)N(C(=O)c1ccncn1)CC2.O=C(O)C(F)(F)F (centres undefined) | -5.908 | -18.61 & -2.798
O=C(Cn1cccc(S(=O)(=O)N2CCCC2)c1=O)c1ccccc1Cl | 16.85 | -5.948 & 8.88
CC(C)Oc1ccc2c(NC(=O)CNC(N)=O)nn(CC(F)(F)F)c2c1 | -19.56 | -10.27
CCc1nc(C2CCCN(C(=O)CC3CCOCC3)C2)no1 (centres undefined) | 10.9 | 23.81
NC(=O)CN1CC2(CCC1=O)CCN(Cc1ccccc1F)CC2 | -15.2 & 2.067 | -13.32
CCOc1ncnc2c1CCN(C(=O)CN(C)C)CC2.O=C(O)C(F)(F)F | 17.94 | 0.3568 & -8.023
CSc1ccc(OC(C)C(=O)Nc2cc[nH]n2)cc1 (centres undefined) | -24.35 | -45.52
CN(Cc1ncnn1C1Cc2ccccc2C1)C1CCS(=O)(=O)C1 (centres undefined) | 4.053 | -4.647
[H][C@]12CC[C@]([H])(CN(C(=O)c3ccncc3)C1)N(C(=O)CN(C)CCOC)C2 | -15.3 | 4.172
COCCC(=O)N(CCC#N)c1ccc(C)c(C)c1 | -1.11 | -1.929
CNC(=O)CN1C(=O)CCC12CCCN(Cc1ccccn1)C2 (centres undefined) | -7.894 | -22.45
CCOc1ncccc1CNC(=O)c1c(C)oc(C)c1C | 0.07751 | -1.384
CC(C)c1nn(C)c(N(C)C)c1CNC1CCN(C2CC2)CC1.Cl | -5.085 | -17.15 & -1.902
COc1ccc(-c2cnc(CN3CCCC3Cn3cccn3)o2)cc1 (centres undefined) | 10.44 | 24.52
O=C(Cc1cccnc1)N1CCCC2(CCN(C3CCOCC3)C2)C1.O=C(O)C(F)(F)F.O=C(O)C(F)(F)F (centres undefined) | -9.85 | 3.856 & -5.503
CC(C)Cc1noc(CN(C)c2cc(N(C)C)ncn2)n1 | -0.7711 | 1.893 & 4.607
COc1ccccc1OCC(=O)Nc1ncccc1OC(F)F | -0.6461 | 9.087 & -8.398
COc1ccc(F)cc1-c1ccccc1CC1CNCCNC1=O.Cl (centres undefined) | -2.536 & -21.71 | 3.02
COCCc1noc(CNC(C)(CO)C2CCCCC2)n1 (centres undefined) | 2.147 | -1.845
CCCN1CCC2(C1)c1ccccc1S(=O)(=O)N2Cc1ccccc1.O=C(O)C(F)(F)F (centres undefined) | 12.56 | 22.16 & 8.544
Cc1ccc(C(C)NC(=O)CSCC(N)=O)cc1 (centres undefined) | 1.399 | 15.79
Cc1cccc(CN2CCN(C(=O)[C@@H]3CSCN3C)CC2)c1 | 14.44 | -15.25
CSc1ccc(NC(=O)Cn2cc(NC(C)=O)cn2)cc1 | -4.16 | 8.748
Cc1cc2cc(C(=O)N3C[C@H](O)[C@]4(CCCO4)C3)ccc2o1 | -4.775 | 9.087
Cc1cc(N2CCCN(C(=O)CSCC3CC3)CC2)ccn1 | 4.736 | -8.923 & -10.91
CCNc1cc2c(nn1)CCN(C(=O)CCc1c(C)noc1Cl)C2 | -3.152 | -3.402
Cc1ccnc(NCc2cccc(OCCN3CCOCC3)c2)n1 | -15.15 | -53.35
Cc1cc(CNc2cc(Cl)ccc2C)no1 | -12.68 | 6.495
O=C(CSc1ccc2c(c1)OCCO2)NS(=O)(=O)c1cccs1 | -18.36 | 7.827
CCCN1CCCN(C(=O)Nc2ccc3c(c2)OCO3)CC1 | 0.7084 | 3.419
CN(C)CCN1CCCC12CCCN(C(=O)c1cccnc1)C2.O=C(O)C(F)(F)F.O=C(O)C(F)(F)F (centres undefined) | -2.282 & -2.98 | -11.33
CC(=O)N1CCC2(CC1)c1ncc(-c3cccnc3)n1CCN2C | 6.85 | 8.249
CC1=C[C@@H](CNS(C)(=O)=O)[C@H](C(C)C)C[C@H]1CC(=O)NCCN(C)C | 5.172 | -15.47 & 6.614
c1ccc(C2CCCN(c3ncnc4c3CCNC4)CC2)cc1 (centres undefined) | 43.41 | 24.86 & 36.09
COc1ccc2nc(C3CC3)cc(C(=O)NCc3noc(C)n3)c2c1 | 23.97 | 30.37
CC(=O)c1ccc(C(=O)NCCCOC(C)c2ccccc2)s1 (centres undefined) | 0.8328 | 11.49 & 19.67
CCOC(=O)[C@H]1[C@@H](O)C(=O)N(C)C12CCN(C(=O)OC)CC2 | -18.01 | -15.58
CNC(=O)c1csc(-c2cccnc2)n1 | -13.45 | -26.74
CC(Oc1ccc2c(c1)OCO2)C(=O)N1CCC(N2CCOCC2)CC1 (centres undefined) | -0.07023 | -6.208
Cn1ncc2c1CCCC2NCc1ccc(OCc2cccnc2)cc1 (centres undefined) | 6.716 | 6.501
COc1ncccc1NC(=O)NCC1CC1 | -1.268 | -9.152
CCOCc1nc2c(c(N3CC=CC3)n1)CCN(C1CCOCC1)CC2 | 5.877 | 8.51
C[C@H](O)CNc1cc(-c2ccncc2)ncn1 | -30.37 | -0.04909
CC(C)C(=O)NCc1cc(Br)ccc1F | -30.81 | 9.208 & 4.287
[H][C@@]12COC(=O)N1CCN(C(=O)COC)C2 | -6.537 | 0.7649 & -2.468
COCC(=O)NC[C@@]1(COc2cccnc2)C[C@@H](O)[C@@H](O)C1.Cl | 10.56 | -2.431 & -3.891
Cc1ccc(CNCc2cccc3cccnc23)c(OC2CCOC2)c1 (centres undefined) | 13.72 | 43.08 & 19.68
CN1CCN(S(=O)(=O)c2ccc(Sc3nccn3C)nc2)CC1 | -22.09 | 3.776 & 25.51
[H][C@@]12CCCO[C@]1([H])[C@@H](N(C)Cc1cncnc1)CN2C(=O)COC | -3.484 | -17.98
CS(=O)(=O)Cc1ccc(C(=O)NCc2ccc(Cl)cc2Cl)cc1 | -30.78 | -29.45
CN1CC[C@H](c2nnc(Cc3c[nH]c4ccccc34)o2)C1 | 5.793 | 1.569 & 30.71
CC(=O)c1c(F)cccc1N1CCC(CS(N)(=O)=O)CC1 | -14.47 | 6.862
COc1cc(NC(=O)NC(C2CC2)C2CC2)ccc1N1CCOC1=O | 15.89 | 31.82
CCN(CC)CCN(C)Cc1cn(C)nc1-c1ccc2c(c1)OCCO2 | -3.091 | -1.41
O=C(c1ccccn1)N1CCCC(c2ncncc2-c2ccncc2)C1 (centres undefined) | -16.79 | 9.641
CN(C)Cc1csc(-c2nccn2Cc2ccsc2)c1 | -4.531 | 9.92
Fc1cc(CN2CCOC3(CCOCC3)C2)ccc1Cl | 3.242 | 14.6

The first 5 entries again:

* O=C(CN1CCOC(Cn2cccn2)C1)NCCc1cccs1 (centres undefined) | Mtb cholesterol medium: 11.96%; Mtb glucose medium: -29.07%
* CSc1ncccc1C(=O)N1CCCC1c1ccc(C(=O)N(C)C)s1 (centres undefined) | Mtb cholesterol medium: -11.42%; Mtb glucose medium: 4.355%
* O=C(O)C(F)(F)F.[H][C@@]12C[C@@H](c3nc(C)no3)CN(CC3CCCC3)[C@]1([H])CCO2 | Mtb cholesterol medium: 2.205%; Mtb glucose medium: 32.94%
* COCCNC(=O)NC1(c2nc(-c3ccncc3)no2)CCCCC1 | Mtb cholesterol medium: -6.991%; Mtb glucose medium: -2.33% & -3.836%
* Cl.Cn1cnc2c(-c3ccccc3)nc(C3CCNCC3)cc21 | Mtb cholesterol medium: -16.32%; Mtb glucose medium: -0.6898%